Laboratory results reported in the supplement of paper PMC3334620.
Whole data set: some 33,000 sequences, median “E-score (-0.5 to 0.5)” near -0.0014, cut for the highest 2% near 0.25. This is one part of the list.

The sequences below were run against T1, Cad1 (UniProt P24813) (assay: PBM E-score (8-mer binding enrichment) (E-score (-0.5 to 0.5)); higher = stronger / more preferred TF binding). Settings: protein concentration: 100 nM; construct: GST-full length.
T1 sequence: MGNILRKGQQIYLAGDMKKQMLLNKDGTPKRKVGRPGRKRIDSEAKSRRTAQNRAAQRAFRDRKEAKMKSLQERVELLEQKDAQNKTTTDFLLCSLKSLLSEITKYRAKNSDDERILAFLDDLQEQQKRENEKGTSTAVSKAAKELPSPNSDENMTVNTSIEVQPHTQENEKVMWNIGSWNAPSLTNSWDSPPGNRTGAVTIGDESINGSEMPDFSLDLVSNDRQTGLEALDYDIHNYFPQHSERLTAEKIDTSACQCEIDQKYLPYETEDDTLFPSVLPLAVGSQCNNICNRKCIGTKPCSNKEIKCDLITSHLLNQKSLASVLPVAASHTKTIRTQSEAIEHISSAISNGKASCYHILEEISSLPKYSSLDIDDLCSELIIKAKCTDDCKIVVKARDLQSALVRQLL
How it was run: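 GST-tagged yeast TFs (full-length or DNA-binding domain) were made by PURExpress in vitro transcription/translation and applied at about 100-200 nM to universal all-10-mer Agilent arrays. The arrays were made double-stranded by primer extension, on fresh or once-stripped slides. Bound protein was detected with fluorescent anti-GST, and scans were normalised with masliner. Each ungapped eight-base word, pooled with its reverse complement, received an E-score (modified Wilcoxon-Mann-Whitney statistic) from the Universal PBM Analysis Suite.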

Sequence	PBM E-score
ACAGGCGG	0.0639
CAGAGTAG	0.0425
ATGACATG	0.0289
CACTTGTA	0.0274
GCAGTGCA	0.0751
ACCACGGA	-0.141
TAACTGAA	-0.0483
TTAGAAAA	0.156
ACTTTTCG	0.124
CTGAGCTA	-0.208
ATTAACAG	0.0513
ATATTGTG	-0.0395
CAGTTCAC	-0.00384
AGAGGCAC	-0.176
CACACAAA	0.104
GTGCGCGA	-0.0729
ATGCCACG	-0.0934
CAGTATCA	0.0166
GTCAGCTA	0.0482
GTATGGCA	0.0746
ACAGCTGC	0.067
ATGATTGA	0.0737
ATAACCTG	-0.118
CTGACCTA	-0.0577
GGAGGGCC	-0.32

Sequence	PBM E-score
ACCACACA	0.0748
ATCTGCCA	-0.0722
CTCGCTTA	0.218
CCACGCAC	0.0497
ATATGGTC	0.108
AAATTGTT	0.0687
ATAACTTA	0.0937
CATTAACA	0.16
AGTGGAAT	-0.0609
CGACTGAG	-0.17
CCCCGCCG	-0.0935
GAGTTGTA	-0.0898
CGTTCCTC	-0.0193
AACCGAGG	-0.282
CACTGTTA	-0.00136
CCTAACGC	0.0492
CATCAGTA	0.0459
AGCTGAAT	-0.00032
CATCATGA	-0.0218
ACGACTCC	-0.0831
AACCGCAG	-0.0821
ACCGCTGC	-0.146
CATTGTAA	-0.00312
CCGGTAAA	0.0195
AAGAGAGC	-0.282

Sequence	PBM E-score
CAGCACTG	-0.141
GGCAAGGA	-0.0598
CACTGTAG	0.139
ATAGATAA	0.125
ACTCGACC	-0.0251
AGCCATCG	-0.0525
GACTGATC	-0.075
AAGCCCGC	0.0106
ACGAGCCA	-0.0145
GATTGACC	-0.149
AGAGCGCC	-0.0652
AGTACCGA	-0.124
GCCACAAC	0.123
CCACAGGC	-0.368
CAGACCAG	0.0044
CCTGTGCA	-0.0992
AGACATTC	-0.178
CCAAAGAA	0.0277
GATTGACA	0.207
AGGGTCTG	-0.246
AGTCTAAT	-0.031
CCTATCGC	-0.142
ATACCTCG	0.0669
AAGCGGGC	-0.231
AATCGCGA	0.196

Sequence	PBM E-score
CCGATCCG	-0.0335
TATGTCAA	0.203
AGACGGCA	0.0815
ATGGCGCC	-0.00769
AAGTCGCA	0.152
CCATAAGC	-0.113
ATTTAGTC	0.18
GCCAACTA	-0.0964
TGTCGTAA	-0.0835
CCATTCGC	-0.149
CCCGTGTC	-0.0991
CAGAGGAA	-0.0211
CGAAAAGC	-0.143
GATTCCGC	0.103
CACGGTCG	-0.184
TCTAGGCA	-0.194
CTGTCTAA	0.0936
TCCAAGCA	-0.0443
GCTGGTCC	-0.0276
AATATGTC	0.17
CGCGAGGA	0.0256
ACTTGTAA	-0.0105
AAATAAGC	0.242
CGGTACCG	0.0814
ATCGTAAC	0.138

Some of the entries so far, as comma-separated lines.
Sequence,PBM E-score
AATATGTC,0.17
CGCGAGGA,0.0256
ACTTGTAA,-0.0105
AAATAAGC,0.242

(cont.)

Sequence	PBM E-score
ACGGTGGG	0.0296
GGCTTTTA	-0.163
CATCGATA	0.149
GTGGGAAC	-0.15
GGCGCCAC	-0.0976
CAGCTTCC	-0.0607
CGCCGACG	-0.0938
ACACCCCC	-0.257
ACGACTAA	-0.00848
GCCAGCAA	-0.131
GGCGGACC	-0.229
CCCGTTGA	-0.131
CTAAACAC	0.00997
TGGATACA	0.00725
AAAGTAAG	0.00657
CATCGGGC	-0.118
GGCGGGAA	0.0677
CTCATCCC	-0.095
ACGACTAT	-0.0492
ACCGCCCT	-0.0409
CAGATTGC	0.028
AGGGATCG	-0.207
CACCTCAG	-0.109
CGTGAGGC	-0.108
CAAGGCCA	0.073

Sequence	PBM E-score
TGACCAAA	0.0091
AATAATCT	0.193
ATTAGGCG	0.211
ATGAACGA	0.111
GGAACCTA	-0.0312
CGCCTACG	-0.188
ACTGAATG	0.00334
CTTGCCAA	-0.109
TTCAGGAA	-0.019
AAAGACCA	-0.153
CACCTCAA	-0.0194
ATGACATC	0.232
CCCTAGGG	-0.212
GAACCTCC	-0.0846
GGTGACGA	0.0258
CAGCTCCC	-0.329
AATATCTA	0.129
ATTAAACA	0.0666
ACTAGGCC	-0.304
TGACAACA	0.162
CACGCGAG	0.239
GAGCAGAC	-0.243
AGTAAAGG	0.0145
AGAGGTGG	-0.0604
ACTCGCAT	0.101

Quoted from the listing:
Entry of AAAGACCA under PBM E-score: -0.153
Entry of AGTAAAGG under PBM E-score: 0.0145
Entry of AGAGGTGG under PBM E-score: -0.0604

The listing continues.

Sequence	PBM E-score
CTTGGGGA	0.0866
CACATGCC	-0.0297
CCGTAAGG	-0.294
GTTAGATA	0.0557
CAGTTCAG	0.0134
AAAATTAC	0.072
ATGGCCAC	-0.21
TAAGAGGA	0.138
ATGAAAAT	0.0649
GTTGAAAA	-0.0062
AAGGCGAG	-0.149
CCGTCTAA	-0.00091
CTGTAAGA	0.0798
AACAAACC	0.243
AACCGACT	-0.0876
CGACTGCA	0.0813
ACAGATGC	-0.123
AGTGACTA	0.063
TCAGTAAA	0.0937
CCTCATAC	-0.0901
AGGCCATG	0.0395
GCAAAAAC	-0.039
CTCAAGAC	-0.0669
ACCTATAG	-0.0679
CATCTCCC	-0.271

Sequence	PBM E-score
GTTAACTA	0.274
CGCCGCGA	0.205
CGTCCCAA	0.0319
CTCACCCC	-0.273
GTCGAAGA	-0.0249
GGGCACAA	-0.151
ACGGTCCG	-0.201
CGCCCTAC	-0.0285
AACAACTC	-0.0423
GCGTGTAA	0.00701
CGTAGACG	-0.105
CGACGTAC	-0.0332
ACGTCGAG	0.00107
GAACGTGC	-0.102
GAGAGTGC	-0.208
ATATGAGA	0.0644
CCCATTAG	-0.3
ACTAATTG	0.197
GGCAAACA	-0.00107
CCAGATCC	-0.0837
CGTGCAAA	0.145
GTATGCAA	0.0691
ATAAACAT	0.0914
GAATTGGC	-0.057
TAACCTAA	-0.0237

6 entries drawn at random from those above:
Sequence	PBM E-score
CGCCCTAC	-0.0285
CGCCGCGA	0.205
CCAGATCC	-0.0837
GCGTGTAA	0.00701
ACGGTCCG	-0.201
AACAACTC	-0.0423

The listing continues:

Sequence	PBM E-score
CTGAAGAA	-0.18
CTCACCAC	0.00332
ACCGTGTA	0.00454
CAATCCAC	0.0588
TAAGCTGA	0.208
AACCGGTA	-0.0764
TAAATTCA	0.0134
CCACCAGA	0.0137
GTACATCA	0.105
ATCGAATA	-0.00799
AGCTGCCT	-0.114
TCATATAA	-0.00059
AGCTTTAG	-0.0922
CCTTGGGC	-0.266
CTCTAGAA	-0.234
GGGAGAGA	-0.341
CGGCACAC	0.0867
ACAGCCTG	-0.228
CATGATGG	-0.0743
